The values below come from publication PMC11324726, “Structural dynamics of protein-protein association involved in the light-induced transition of Avena sativa LOV2 protein” (Nature Communications, 2024).

These are yes or no findings as the source states them, for the method shown. Some entries that bind do so weakly or less than the wild type.

The target of experiment [1] is AsLOV2 (residue 404-546) E475K mutant (Avena sativa) (UniProt O49003). In words: SEC; light state; monomer and dimer fractions by elution volume; conditions in Supplementary Note 3 and Supplementary Methods (not shown); both purified. On the technique in general: SEC sorts molecules by how far they enter the pores of the column.
Experiment [2] has as its target AsLOV2 (residue 404-546) K413E mutant (Avena sativa) (UniProt O49003). The experiment is described as above.
Experiment [3] addresses AsLOV2 A'α and Jα deletion construct (residue 413-520) (Avena sativa) (UniProt O49003). In words: SEC; dark state; monomer and dimer fractions by elution volume; conditions in Supplementary Note 3 and Supplementary Methods (not shown); both purified.
Experiment [4] deals with AsLOV2 A'α helix deletion construct (residue 413-546) (Avena sativa) (UniProt O49003). The experiment is described as above.
The target in experiment [5] is AsLOV2 Jα helix deletion construct (residue 404-520) (Avena sativa) (UniProt O49003). Described as above.
In experiment [6] the target is Avena sativa phototropin 1 LOV2 domain with A'α and Jα helices (residue 404-546), wild type (Avena sativa) (UniProt O49003). In words: static SAXS; in solution; light state (LED light) compared with the ground state; ab initio shape reconstruction; both purified.

Consider “AsLOV2 (residue 404-546) E475K mutant (from UniProt O49003 404-546) (domain or fragment)”, for which the binding result in experiment [1] is “binds”.

As for “AsLOV2 (residue 404-546) K413E mutant (from UniProt O49003 404-546) (domain or fragment)”, in experiment [2], the binding result is reported as “binds”. Consider “AsLOV2 A'α and Jα deletion construct (residue 413-520) (from UniProt O49003 413-520) (domain or fragment)”, for which the binding result in experiment [3] is “binds”. On to “AsLOV2 A'α helix deletion construct (residue 413-546) (from UniProt O49003 413-546) (domain or fragment)”, for which the binding entry in experiment [4] is given as “binds”. As to “AsLOV2 Jα helix deletion construct (residue 404-520) (from UniProt O49003 404-520) (domain or fragment)”, the binding result in experiment [5] is reported as “binds”.

B1: Avena sativa phototropin 1 LOV2 domain with A'α and Jα helices (residue 404-546), wild type (domain or fragment, UniProt O49003 404-546, looked up)
chain: LATTLERIEKNFVITDPRLPDNPIIFASDSFLQLTEYSREEILGRNCRFLQGPETDRATVRKIRDAIDNQTEVTVQLINYTKSGKKFWNLFHLQPMRDQKGDVQYFIGVQLDGTEHVRDAAEREGVMLIKKTAENIDEAAKEL
notes: Avena sativa phototropin 1 (AsPhot1), A'α helix (404-412) + LOV2 core (413-520) + Jα helix (521-546), residues 404-546; Carries FMN as chromophore; in the light state a Cys-FMN photoadduct is formed; also called AsLOV2; AsLOV2 WT
For B1, the binding entry in experiment [6] is “binds”.
